Measured values as given in the supplement of paper PMC7024190.
Where a name gives a salt, the structure may show the parent alone. Some of the results follow. Repeats in this data set agree poorly, so a single value says little.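 Human embryonic kidney cells were transiently transfected with a plasmid bearing a Renilla luciferase gene under the HSV-TK promoter. This first-round screen tests roughly ten thousand compounds for ones that increase reporter output.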

These compounds were tested on HEK 293FT (assay: log relative Renilla luciferase luminescence (reporter expression vs reference, reference not stated) (log (base not stated)); higher = higher recombinant reporter expression). Conditions: 10 µM; time after transfection 48 h.
With `CCN(CC)CCNC(=O)COc1ccc(OC)cc1` [mefexamide hydrochloride] the log was -0.0648. `Cc1nc2n(c(=O)c1CCN1CCC(c3noc4cc(F)ccc34)CC1)CCCC2O` (configuration not stated) [paliperidone] was tested, and the log was -0.544. `CC(=O)OCC1=C(C(=O)O)N2C(=O)[C@@H](NC(=O)Cc3cccs3)[C@H]2SC1` [cephalothin sodium] showed a log of -0.0535. `CCOc1ccc(NC(=O)CC(C)O)cc1` (configuration not stated) [bucetin] was tested, and the log was 0.102. `COc1c(O)cc2oc3cc(O)c(CC=C(C)C)c(O)c3c(=O)c2c1CC=C(C)C` [alpha-mangostin] was tested, and the log was -1.47. `C=CCCCCCCCCC(=O)O` [undecylenic acid] gave a log of 0.0621. In the case of `COC(=O)C[C@H]1C(C)(C)[C@@H](OC(C)=O)[C@@H]2CC3C4CC(=O)O[C@@H](c5ccoc5)[C@]4(C)CCC3[C@@]1(C)C2=O` (some centres not stated) [dihydrofissinolide], the log is reported as 0.00801. Compound `CC1(C)S[C@@H]2[C@H](NC(=O)Cc3ccccc3)C(=O)N2[C@H]1C(=O)O` [penicillin g potassium] has a log of -0.172. In the case of `CCCCc1nc(Cl)c(CO)n1Cc1ccc(-c2ccccc2-c2nnn[nH]2)cc1` [losartan], the log is reported as -0.0157. Work on `O=C1CCC(N2C(=O)c3ccccc3C2=O)C(=O)N1` (configuration not stated) [thalidomide] yielded a log of 0.149. In the case of `CC1(C)C[C@@H]2C(=O)CC[C@H]3O[C@]3(C)CC[C@H]21` [kobusone], the log is reported as 0.00486. For `CC[n+]1c(-c2ccccc2)c2cc(N)ccc2c2ccc(N)cc21` [homidium bromide], the log was 0.182. `O=C1OC(CN2CCOCC2)CN1/N=C/c1ccc([N+](=O)[O-])o1` (configuration not stated) [furaltadone] showed a log of -0.147. `CNCCCN1c2ccccc2CCc2ccccc21` [desipramine hydrochloride] showed a log of 0.0238. Compound `O=C(O)[C@]1(O)C[C@@H](O)[C@@H](O)[C@H](O)C1` [quinic acid] has a log of 0.116. `O=C(O)CCNC(=O)c1ccc(/N=N/c2ccc(O)c(C(=O)O)c2)cc1` [balsalazide disodium] gave a log of 0.0257. Compound `C[n+]1ccccc1/C=N/O` [pralidoxime chloride] has a log of 0.0658. `CCC(C)n1ncn(-c2ccc(N3CCN(c4ccc(OCC5COC(Cn6cncn6)(c6ccc(Cl)cc6Cl)O5)cc4)CC3)cc2)c1=O` (configuration not stated) [itraconazole] gave a log of -0.196. `COc1ccc(/C=C/C(=O)c2cc(O)ccc2O)cc1` [2',5'-dihydroxy-4-methoxychalcone] showed a log of -0.0152. `Cc1cccc(Nc2ccccc2C(=O)O)c1C` [mefenamic acid] showed a log of -0.0732. `C=CCSCC=C` [diallyl sulfide] was tested, and the log was -0.0856. With `CC(N)C(=O)OC(C)(C)Cc1ccc(Cl)cc1` (configuration not stated) [alaproclate] the log was 0.193.
